These are yes or no findings as the source states them, for the method shown. Binding seen in cells or lysates may run through a third protein. Here binding means that the protein was enriched with, or labelled near, the bait; the list need not be complete. Tags and fused reporters may be left off the sequences shown.

Chains of the proteins cited; added tags and fusions are not shown.
UniProt P31947: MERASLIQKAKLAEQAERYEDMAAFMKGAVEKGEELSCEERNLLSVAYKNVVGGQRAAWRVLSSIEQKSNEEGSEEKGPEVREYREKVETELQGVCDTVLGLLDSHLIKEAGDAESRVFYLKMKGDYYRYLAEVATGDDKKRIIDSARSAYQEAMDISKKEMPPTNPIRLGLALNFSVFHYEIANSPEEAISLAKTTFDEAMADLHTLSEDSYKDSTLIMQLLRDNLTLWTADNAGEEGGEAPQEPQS

The assay addresses T1, HA-tagged PMEPA1 (prostate transmembrane protein androgen induced 1), exogenous, in AGS cells (human) (UniProt Q969W9).
T1 sequence: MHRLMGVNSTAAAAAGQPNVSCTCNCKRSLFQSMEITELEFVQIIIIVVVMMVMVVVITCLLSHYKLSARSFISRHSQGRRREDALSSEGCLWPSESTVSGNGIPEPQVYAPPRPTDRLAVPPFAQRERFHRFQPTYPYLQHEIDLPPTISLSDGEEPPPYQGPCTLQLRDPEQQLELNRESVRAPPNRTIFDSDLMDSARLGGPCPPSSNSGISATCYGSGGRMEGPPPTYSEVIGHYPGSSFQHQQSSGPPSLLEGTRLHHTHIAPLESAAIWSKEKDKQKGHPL
The experiment in a line: affinity purification with mass spectrometry; anti-HA immunoprecipitation from lysates of control and PMEPA1-overexpressing AGS cells; bands excised from the gel, trypsin digest, Orbitrap Exploris 480.

Regarding “14-3-3σ, endogenous in gastric cancer cells (MKN-7, AGS) (from UniProt P31947 1-248)”, the binding entry is “binds”.

These data come from PMC11653473.
